Literature values as cited in patent EP3654984B1, “TOPICAL TREATMENT FOR PREVENTING AND MITIGATING SKIN CYTOTOXICITY DUE TO THERAPY WITH TYROSINE KINASE INHIBITORS” (EUCARE S.R.L., priority 2017, dated 2019).
At least one compound was matched to its structure with a doubt left.

Legend:
[1] = test system: patients with non-small cell lung cancer (NSCLC); details: tetracycline-treated arm, afatinib 40 mg/day for 90 days, cited from earlier work
[2] = test system: epidermal growth factor receptor (EGFR) inhibitor-induced rash; details: 2010 study, Jatoi et al.; cited from earlier work

CN(C)[C@@H]1C(O)=C(C(N)=O)C(=O)[C@@]2(O)C(O)=C3C(=O)c4c(O)cccc4[C@@](C)(O)[C@H]3C[C@@H]12 [tetracycline]
incidence of rash grade ≥ 2 ([1]; p = 0.030 vs control): 15.6% | incidence of rash of any grade ([1]; p = 0.046 vs control): 44.5% | effect in the treatment of cutaneous rash associated with EGFR administration [2]: absence of effect
